Laboratory results: the supplement of paper PMC9226226
“And” between values parts separate entries of the source, which are not always exact repeats. Equal entries are not always repeated. Some of the results follow. Some well-known active drugs show little effect in this data set, so a weak value is uncertain.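 Prematurely aging human mesenchymal stem cells without the Werner syndrome gene were monitored by automated live-cell imaging over three biological repeats. The top twenty drugs for increasing growth versus vehicle moved forward; no fixed cutoff was specified.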

Tested on: Werner syndrome hMSCs (WRN-/-)
Assay: relative cell density (fold change vs vehicle control); higher = more proliferation (geroprotective)
Details: concentration (umol/L): 1, 6 days

| Compound | relative cell density (vehicle: DMSO) | relative cell density (vehicle: Water) |
| --- | --- | --- |
| [I-].[K+] | 1.25 | – |
| Cc1cc(-n2c(=O)[nH]c(=O)n(C)c2=O)ccc1Oc1ccc(SC(F)(F)F)cc1 | 0.838 | – |
| Cc1ccccc1N1C(=O)c2cc(S(N)(=O)=O)c(Cl)cc2NC1C (stereo not given) | 0.95 | – |
| OCCOCCN1CCN(C(c2ccccc2)c2ccc(Cl)cc2)CC1 (stereo not given) | 1.12 | – |
| C=CC1=C(C(=O)O)N2C(=O)[C@@H](NC(=O)/C(=N\OCC(=O)O)c3csc(N)n3)[C@H]2SC1 | 1.18 | – |
| O=C(NS(=O)(=O)c1ccc(Br)s1)c1ccc(Cl)cc1Cl | 1.26 | – |
| O=S(=O)(O)CCCS(=O)(=O)O | – | 0.917 |
| Nc1cccc2c1CN(C1CCC(=O)NC1=O)C2=O (stereo not given) | 0.964 | – |
| COc1ccc2[nH]c([S+]([O-])Cc3ncc(C)c(OC)c3C)nc2c1 (stereo not given) | 0.94 | – |
| CNC(=O)[C@H](Cc1ccccc1)NC(=O)[C@H](CC(C)C)[C@H](CSc1cccs1)C(=O)NO | 1.51 | – |
| Cn1nnnc1SCC1=C(C(=O)O)N2C(=O)[C@@H](NC(=O)[C@H](OC=O)c3ccccc3)[C@H]2SC1 | 1.07 | – |
| CCOC(=O)[C@H](CCc1ccccc1)N[C@@H](C)C(=O)N1CCC[C@H]1C(=O)O | 1.22 | – |
| Cc1noc(NS(=O)(=O)c2ccc(N)cc2)c1C | 1.01 | – |
| CCc1cccc2c3c([nH]c12)C(CC)(CC(=O)O)OCC3 (stereo not given) | 0.995 | – |
| CCC[C@H](NC(=O)[C@@H]1[C@H]2CCC[C@H]2CN1C(=O)[C@@H](NC(=O)[C@@H](NC(=O)c1cnccn1)C1CCCCC1)C(C)(C)C)C(=O)C(=O)NC1CC1 | 1.06 | – |
| C[C@]12CC[C@@H]3c4ccc(O)cc4CC[C@H]3[C@@H]1C[C@@H](O)[C@@H]2O | 1.19 | – |
| CC1=C(CC(=O)O)c2cc(F)ccc2/C1=C\c1ccc([S+](C)[O-])cc1 (stereo not given) | 1.3 | – |
| C=CC(=O)N1CCC[C@@H](n2nc(-c3ccc(Oc4ccccc4)cc3)c3c(N)ncnc32)C1 | 1.15 | – |
| Cn1c([N+](=O)[O-])cnc1COC(N)=O | 1.29 | – |
| CCN(c1cc(-c2ccc(CN3CCOCC3)cc2)cc(C(=O)NCc2c(C)cc(C)[nH]c2=O)c1C)C1CCOCC1 | – | 0.811 |

| Compound | relative cell density (vehicle: DMSO) | relative cell density (vehicle: Water) |
| --- | --- | --- |
| CCC1(c2c[nH]cn2)Cc2ccccc2C1 | 1.25 and 1.47 | – |
| CC[C@@H]1/C=C(\C)C[C@H](C)C[C@H](OC)[C@H]2O[C@@](O)(C(=O)C(=O)N3CCCC[C@H]3C(=O)O[C@H](/C(C)=C/[C@@H]3CC[C@H](Cl)[C@H](OC)C3)[C@H](C)[C@@H](O)CC1=O)[C@H](C)C[C@@H]2OC | 1.38 | – |
| CCCCCCCCN=c1ccn(CCCCCCCCCCn2ccc(=NCCCCCCCC)cc2)cc1 | 0.0213 | – |
| COc1ccc(C(=O)NCc2ccc(OCCN(C)C)cc2)cc1OC | 1.23 | – |
| N=C(N)N/N=C/c1c(Cl)cccc1Cl | 1.1 | – |
| Cc1ccc2c(Cl)cc(Cl)c(O)c2n1 | 0.994 | – |
| OC(CCN1CCCCC1)(c1ccccc1)C1CCCCC1 (stereo not given) | 1.46 | – |
| O=C(OCc1ccccc1)c1ccccc1 | 1.05 | – |
| CN(C)CCOC(=O)COc1ccc(Cl)cc1 | 1.18 | – |
| Brc1c(NC2=NCCN2)ccc2nccnc12 | 1.06 | – |
| N#Cc1ccc(Oc2ccc3c(c2)COB3O)cc1 | 1.05 | – |
| CC(N)C12CC3CC(CC(C3)C1)C2 (stereo not given) | 1.1 | – |
| C=C[C@@H]1C[C@]1(NC(=O)[C@@H]1C[C@@H](Oc2ncc(OC)c3ccc(Cl)cc23)CN1C(=O)[C@@H](NC(=O)OC(C)(C)C)C(C)(C)C)C(=O)NS(=O)(=O)C1CC1 | 1.09 | – |
| CCOC(=O)c1c(C)n(C)c2ccc(O)cc12 | 1.38 | – |
| COc1ccc(C[C@@H]2c3cc(OC)c(OC)cc3CC[N@+]2(C)CCC(=O)OCCCCCOC(=O)CC[N@@+]2(C)CCc3cc(OC)c(OC)cc3[C@H]2Cc2ccc(OC)c(OC)c2)cc1OC | 1.16 | – |
| CN(CCOc1ccc(CC2SC(=O)NC2=O)cc1)c1ccccn1 (stereo not given) | 1.22 and 1.17 and 1.11 | – |
| COC(=O)[C@@H]1[C@H]2C[C@H]3c4[nH]c5ccccc5c4CCN3C[C@@H]2CC[C@@H]1O | 1.16 | – |
| CC1(C)NC(=O)N(c2ccc([N+](=O)[O-])c(C(F)(F)F)c2)C1=O | 1.13 | – |
| CCCCCCc1ccc(O)cc1O | 1.45 | – |
| O=C(/C=C\n1cnc(-c2cc(C(F)(F)F)cc(C(F)(F)F)c2)n1)NNc1cnccn1 | 1.26 | – |

5 successive compounds out of the list so far, for reference:

| Compound | relative cell density (vehicle: DMSO) | relative cell density (vehicle: Water) |
| --- | --- | --- |
| OCCOCCN1CCN(C(c2ccccc2)c2ccc(Cl)cc2)CC1 (stereo not given) | 1.12 | – |
| C=CC1=C(C(=O)O)N2C(=O)[C@@H](NC(=O)/C(=N\OCC(=O)O)c3csc(N)n3)[C@H]2SC1 | 1.18 | – |
| O=C(NS(=O)(=O)c1ccc(Br)s1)c1ccc(Cl)cc1Cl | 1.26 | – |
| O=S(=O)(O)CCCS(=O)(=O)O | – | 0.917 |
| Nc1cccc2c1CN(C1CCC(=O)NC1=O)C2=O (stereo not given) | 0.964 | – |

Later entries.

| Compound | relative cell density (vehicle: DMSO) | relative cell density (vehicle: Water) |
| --- | --- | --- |
| Cc1nc(NC(=O)N2CCC[C@H]2C(N)=O)sc1-c1ccnc(C(C)(C)C(F)(F)F)c1 | 1.02 | – |
| CCCCc1nc(C)c(CC(=S)N(C)C)c(=O)n1Cc1ccc(-c2ccccc2-c2nnn[nH]2)cc1 | 1.09 | – |
| CC(C)NCC(O)COc1cccc2ccccc12 (stereo not given) | 0.686 | – |
| CCC1=C(C)CN(C(=O)NCCc2ccc(S(=O)(=O)NC(=O)N[C@H]3CC[C@H](C)CC3)cc2)C1=O | 1.07 | – |
| COc1cc(Nc2nc3ccccc3nc2NS(=O)(=O)c2ccc(NC(=O)c3ccc(C)c(OC)c3)cc2)cc(OC)c1 | 1.05 | – |
| CCS(=O)(=O)CCn1c([N+](=O)[O-])cnc1C | 0.942 | – |
| N#C[C@@H]1C[C@@H]2C[C@@H]2N1C(=O)[C@@H](N)C12CC3CC(CC(O)(C3)C1)C2 | 1.48 and 1.03 | – |
| O=C1CCc2cc(OCCCCc3nnnn3C3CCCCC3)ccc2N1 | 1.14 | – |
| CCCCOc1cc(C(=O)NCCN(CC)CC)c2ccccc2n1 | 0.678 | – |
| CCN1CC(CCN2CCOCC2)C(c2ccccc2)(c2ccccc2)C1=O (stereo not given) | 1.21 | – |
| CC(=O)N[C@H]1[C@H]([C@H](O)[C@H](O)CO)OC(C(=O)O)=C[C@@H]1NC(=N)N | – | 1.23 |
| CCC(=O)O[C@]1(C(=O)CCl)[C@@H](C)C[C@H]2[C@@H]3C[C@H](F)C4=CC(=O)C=C[C@]4(C)[C@@]3(F)[C@@H](O)C[C@@]21C | 1.07 | – |
| CNCCC(Oc1ccc(C(F)(F)F)cc1)c1ccccc1 (stereo not given) | 1.02 | – |
| Cc1nc2n(c(=O)c1CCN1CCC(c3noc4cc(F)ccc34)CC1)CCCC2 | – | 0.369 |
| N=C(N)NCCC[C@H](N)C(=O)O | – | 0.903 |
| C[C@@H](CN1CC(=O)NC(=O)C1)N1CC(=O)NC(=O)C1 | 0.879 | – |
| CC(=O)Nc1ccc(CC(=O)O)cc1 | 1.22 | – |
| CC(=O)OCC(=O)[C@@]12N=C(C)O[C@@H]1C[C@H]1[C@@H]3CCC4=CC(=O)C=C[C@]4(C)[C@H]3[C@@H](O)C[C@@]12C | 1.52 | – |
| OCc1cc(C(O)CNCCCCCCOCCCCc2ccccc2)ccc1O (stereo not given) | 1.13 | – |
| CCOc1ccccc1OCCN[C@H](C)Cc1ccc(OC)c(S(N)(=O)=O)c1 | 1.15 | – |
